Values from PubChem BioAssay AID602196 (INSERM, 2012).

- Screen: 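Modifiers of cisplatin sensitivity in A549 cells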
- Cells: human A549 lung cancer cells
- Reagent: siRNA pair against human genes
- Timing: 48 h transfection before cisplatin; time from cisplatin to read-out not stated
- Treatment: cisplatin at a dose killing half of control-siRNA cells; exact dose and duration not given
- Detection: 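Shift in cisplatin death relative to control siRNA, from -50 (all cells die) to +50 (no cells die); siRNAs harmful on their own scored 0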
- Scale: two-siRNA summed score (-2 to +2): higher = both siRNAs protect from cisplatin killing; -2 means both sensitise; mean protection from cisplatin (shift in death) and protection from cisplatin (shift in death), siRNA C and protection from cisplatin (shift in death), siRNA D: higher = protection from cisplatin killing
- Call rule: 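siRNAs harmful alone (LDH or WST-1) get 0; others get +1 for less and -1 for more cisplatin killing; genes are active when the two siRNAs give the same sign, summing to ±2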
- Calls: active = both siRNAs shift cisplatin killing the same way; inactive = no consistent shift, or siRNA harmful alone
The deposit covers about 23,000 reagents; this is a random part of them. 455 of them (2%) count as active. 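Active includes both protection and sensitisation; some change values fall well beyond the stated -50 to +50 range.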 Not stated in the record: the amount of reagent.

Gene | two-siRNA summed score (-2 to +2) | mean protection from cisplatin (shift in death) (%) | protection from cisplatin (shift in death), siRNA C (%) | protection from cisplatin (shift in death), siRNA D (%) | Outcome
RCSD1 | -1 | -7.4 | -17.5 | 2.7 | inactive
D-JC6 | 0 | -4.4 | 2.9 | -11.6 | inactive
RNF175 | 0 | 2.4 | 1.7 | 3.1 | inactive
LAMA1 | 0 | 14.4 | 34.2 | -5.3 | inactive
TMEM220 | 0 | 4.3 | -1.3 | 9.8 | inactive
ARSD | 1 | 14.1 | 12.2 | 15.9 | inactive
RPS6 | 0 | 32.3 | 38.1 | 26.5 | inactive
SERP2 | 0 | 10.4 | 11.9 | 8.9 | inactive
ATP5PB | 1 | 12.4 | 7.3 | 17.4 | inactive
ZNF395 | 0 | -0.6 | -1.2 | 0.1 | inactive
LOC388567 | 1 | -0.5 | 13.4 | -14.4 | inactive
BOC | 0 | 6.2 | 13.5 | -1 | inactive
RSBN1 | 0 | 0.2 | -2.4 | 2.8 | inactive
C11orf16 | 1 | 10 | 23.2 | -3.1 | inactive
SLC30A1 | 0 | -1.8 | -12 | 8.4 | inactive
CGB3 | 0 | 10.9 | 9.1 | 12.7 | inactive
MAPKAPK5 | 0 | 1 | -0.3 | 2.3 | inactive
TMSB15A | 0 | -2.4 | 5.9 | -10.6 | inactive
LOC400720 | 0 | 0.4 | 12.4 | -11.7 | inactive
GPS2P1 | 1 | 6.9 | 22.4 | -8.5 | inactive
ANKRD23 | -2 | -11.6 | -11 | -12.3 | active
ZCCHC4 | 0 | 0.2 | 2.8 | -2.3 | inactive
CS | 1 | 4.6 | -0.9 | 10 | inactive
VSIG4 | 0 | 0.2 | -1.2 | 1.6 | inactive
ADAM29 | 0 | -7.3 | -6.9 | -7.7 | inactive
LOC122706 | 0 | -0.2 | 2.8 | -3.1 | inactive
LOC197049 | 1 | 10.5 | 2.1 | 18.9 | inactive
MGME1 | 0 | -6.8 | -9.7 | -3.9 | inactive
LOC388943 | 0 | 4 | 21.4 | -13.3 | inactive
FBXL2 | -1 | -10.1 | -24.3 | 4 | inactive
ST8SIA4 | 0 | -1.5 | -4.3 | 1.3 | inactive
LOC130865 | 2 | 16.6 | 14.8 | 18.5 | active
OR9K2 | 1 | 13 | 4.8 | 21.1 | inactive
YAP1 | 0 | -5.5 | -13.4 | 2.4 | inactive
PDYN | 0 | 9.6 | 29 | -9.9 | inactive
RBMX | 0 | 6.1 | 7.6 | 4.7 | inactive
ATP1A3 | -1 | -6.1 | -8.1 | -4.1 | inactive
ALDH2 | 0 | -2.2 | -3.5 | -1 | inactive
ZNF507 | 1 | 10.5 | 14.5 | 6.4 | inactive

An excerpt from above, showing only “two-siRNA summed score (-2 to +2)”.
ST8SIA4 = 0
LOC130865 = 2
OR9K2 = 1
YAP1 = 0
PDYN = 0
RBMX = 0
